The source of these data is the supplement of paper PMC3682954.

The subject of the assay is RAW 264.7. Put plainly: HMGB1-induced TNF-alpha production relative to HMGB1-stimulated control; higher = more TNF-alpha secretion (less inhibition). The conditions noted are these: stimulus: HMGB1 5 ug/ml, 18 h.
The mark [1] stands for this setting: compound concentration: 1 ug/ml.

Values joined by “and” are separate entries in the source; they are usually repeats but may differ in a detail not shown here. Equal values may be shown once. Where a name gives a salt, the structure may show the parent alone. ± gives the standard deviation of the averaged measurements. This is one part of the list. Many values rest on one well or one pass, so single values are uncertain.

For the compound `CCN1CCN(c2cc3c(cc2F)c(=O)c(C(=O)O)cn3C2CC2)CC1` [Enrofloxacin], under “compound concentration: 3 uM”, the “HMGB1-induced TNF-alpha production” value is 94.7%. Still for that read-out and setting: with `CCN1CCN(c2cc3c(cc2F)c(=O)c(C(=O)O)cn3C2CC2)CC1` the figure was 102 ± 7.2%. On the same count and under the same terms, the figure for `Oc1ccc(OCc2ccccc2)cc1` [Monobenzone] is 116%; for `CCCn1c(=O)c2c(ncn2C)n(CCC)c1=O` [1,3-Dipropyl-7-methylxanthine] it is 79.6%; for `C[C@H]1C[C@H]2[C@@H]3CCC4=CC(=O)C=C[C@]4(C)[C@@]3(F)[C@@H](O)C[C@]2(C)[C@@]1(O)C(=O)CO` [Betamethasone] it is 37.6 ± 12%.

For the compound `C[C@H]1C[C@H]2[C@@H]3CCC4=CC(=O)C=C[C@]4(C)[C@@]3(F)[C@@H](O)C[C@]2(C)[C@@]1(O)C(=O)CO`, for the setting “compound concentration: 3 uM”, the “HMGB1-induced TNF-alpha production” value stood at 38.7%.

Consider `CC(C)C1=CC2=CC[C@@H]3[C@](C)(CCC[C@@]3(C)C(=O)O)[C@H]2CC1` [Abietic acid], for which the “HMGB1-induced TNF-alpha production” value under setting [1] was found to be 54.8%. The same measure, in the same setting: the figure for `COc1cc(O)c2c(=O)cc(-c3ccccc3)oc2c1` is 75.5%; for `CC(=O)OCC1OC(Oc2cc(OC(C)=O)c3c(=O)c(-c4ccc(OC(C)=O)c(OC(C)=O)c4)coc3c2)C(OC(C)=O)C(OC(C)=O)C1OC(C)=O` (centres undefined) [Orobole 7-O-Glucoside, Acetate] it is 91.1%.

On to `COC(=O)C1=C(C)NC(C)=C(C(=O)OCCCN2CCC(c3ccccc3)(c3ccccc3)CC2)[C@H]1c1cccc([N+](=O)[O-])c1` [Niguldipine], for which the “HMGB1-induced TNF-alpha production” value (compound concentration: 3 uM) turned out to be 62.3%. On the same count and under the same terms, with `COC(=O)Nc1nc2ccc(SC(C)C)cc2[nH]1` [Methiazole] the figure was 159%; with `C=C1/C(=C\C=C2/CCC[C@]3(C)[C@@H]([C@H](C)/C=C/[C@@H](O)C4CC4)CC[C@@H]23)C[C@@H](O)C[C@@H]1O`, 95%; with `C=C1/C(=C\C=C2/CCC[C@]3(C)[C@@H]([C@H](C)/C=C/[C@@H](O)C4CC4)CC[C@@H]23)C[C@@H](O)C[C@@H]1O` [Calcipotriene], 72.3 ± 3.8%. As for `Cc1ccc(Cl)c(Nc2ccccc2C(=O)O)c1Cl` [Meclofenamic acid sodium], the “HMGB1-induced TNF-alpha production” value (compound concentration: 3 uM) turned out to be 114%.

On to `Cc1ccc(Cl)c(Nc2ccccc2C(=O)O)c1Cl`, for which the “HMGB1-induced TNF-alpha production” value (compound concentration: 3 uM) is 101%. Still for that read-out and setting: with `Cc1ccc(Cl)c(Nc2ccccc2C(=O)O)c1Cl` [Meclofenamic acid sodium salt monohydrate] the figure was 71.7%. Still for that read-out and setting: the figure for `O=C(NCCO[N+](=O)[O-])c1cccnc1` [Nicorandil] is 84.1 ± 16%. Same read-out and setting: the figure for `O=C(NCCO[N+](=O)[O-])c1cccnc1` is 112%; for `CCN1CCN(C(=O)N[C@@H](C(=O)N[C@@H]2C(=O)N3C(C(=O)O)=C(CSc4nnnn4C)CS[C@H]23)c2ccc(O)cc2)C(=O)C1=O` [Cefoperazone acid] it is 95.9%. As to `CCN1CCN(C(=O)N[C@@H](C(=O)N[C@@H]2C(=O)N3C(C(=O)O)=C(CSc4nnnn4C)CS[C@H]23)c2ccc(O)cc2)C(=O)C1=O` [Cefoperazone dihydrate], for the setting “compound concentration: 3 uM”, the “HMGB1-induced TNF-alpha production” value was found to be 81.9%. Still for that read-out and setting: the figure for `CCN1CCN(C(=O)N[C@@H](C(=O)N[C@@H]2C(=O)N3C(C(=O)O)=C(CSc4nnnn4C)CS[C@H]23)c2ccc(O)cc2)C(=O)C1=O` is 84.7%. The same measure, in the same setting: the figure for `CN(C)CCOc1ccc(/C(=C(/CCCl)c2ccccc2)c2ccccc2)cc1` is 95% and 90.1%; for `CN(C)CCOc1ccc(/C(=C(/CCCl)c2ccccc2)c2ccccc2)cc1` [Toremifene] it is 93.3 ± 14%; for `CO[C@@]12[C@H](COC(N)=O)C3=C(C(=O)C(C)=C(N)C3=O)N1C[C@@H]1N[C@@H]12` it is 99.4 ± 17%. Still for that read-out and setting: with `CO[C@@]12[C@H](COC(N)=O)C3=C(C(=O)C(C)=C(N)C3=O)N1C[C@@H]1N[C@@H]12` [Mitomycin C] the figure was 123%. For the compound `CC(C(=O)O)c1ccc(N2Cc3ccccc3C2=O)cc1` (centres undefined), the “HMGB1-induced TNF-alpha production” value (compound concentration: 3 uM) stood at 90.8%. Still for that read-out and setting: the figure for `CC(C(=O)O)c1ccc(N2Cc3ccccc3C2=O)cc1` (centres undefined) [Indoprofen] is 104%; for `CC1=Nc2ccc(Cl)cc2S(=O)(=O)N1` [Diazoxide] it is 92 ± 5.2%; for `CC1=Nc2ccc(Cl)cc2S(=O)(=O)N1` it is 96.2 ± 2%. As to `O=c1c(-c2ccc(O)cc2)coc2c([C@@H]3O[C@H](CO)[C@@H](O)[C@H](O)[C@H]3O)c(O)ccc12` [Puerarin], the “HMGB1-induced TNF-alpha production” value under setting [1] stood at 70%. As to `CCn1nc(C(=O)O)c(=O)c2cc3c(cc21)OCO3` [Cinoxacin], the “HMGB1-induced TNF-alpha production” value came to 59.7% under setting [1] and 89.6 ± 4.2% (compound concentration: 3 uM). Regarding `CCn1nc(C(=O)O)c(=O)c2cc3c(cc21)OCO3`, the “HMGB1-induced TNF-alpha production” value (compound concentration: 3 uM) worked out at 86%. Same read-out and setting: with `Cc1cc(/C=C/c2ccc3cc(N(C)C)ccc3[n+]2C)c(C)n1-c1ccccc1` the figure was 110%; with `Cc1cc(/C=C/c2ccc3cc(N(C)C)ccc3[n+]2C)c(C)n1-c1ccccc1` [Pyrvinium pamoate], 78.3%. Regarding `COCCOC(=O)C1=C(C)NC(C)=C(C(=O)OC/C=C/c2ccccc2)C1c1cccc([N+](=O)[O-])c1` (centres undefined) [Cilnidipine], where the note is “compound concentration: 3 uM”, the “HMGB1-induced TNF-alpha production” value turned out to be 90.5 ± 7.7%.

Take `CCCCNc1ccc(C(=O)OCCOCCOCCOCCOCCOCCOCCOCCOCCOC)cc1` [Benzonatate]: the “HMGB1-induced TNF-alpha production” value (compound concentration: 3 uM) is 74.5%.

With `O=C(O)/C=C/c1ccc(Cn2ccnc2)cc1` [Ozagrel], where the note is “compound concentration: 3 uM”, the “HMGB1-induced TNF-alpha production” value stood at 140%. Same read-out and setting: the figure for `O=C(O)/C=C/c1ccc(Cn2ccnc2)cc1` is 103% and 83.5%; for `O=C(O)/C=C/c1ccc(Cn2ccnc2)cc1` [Ozagrel hydrochloride] it is 89.7%. Regarding `COC(=O)CC[C@@H](C)[C@H]1CC[C@H]2[C@@H]3CC[C@@H]4C[C@H](O)CC[C@]4(C)[C@H]3C[C@H](O)[C@]12C` [Deoxycholic acid methyl ester], the “HMGB1-induced TNF-alpha production” value under setting [1] was 75.8%.

For `CCCc1nc(C)c2c(=O)nc(-c3cc(S(=O)(=O)N4CCN(CC)CC4)ccc3OCC)[nH]n12`, the “HMGB1-induced TNF-alpha production” value (compound concentration: 3 uM) amounted to 107%. As for `CCCc1nc(C)c2c(=O)nc(-c3cc(S(=O)(=O)N4CCN(CC)CC4)ccc3OCC)[nH]n12` [Vardenafil], the “HMGB1-induced TNF-alpha production” value (compound concentration: 3 uM) was 95.3 ± 17%. The same measure, in the same setting: with `C[C@H]1CC2C3CCC4=CC(=O)C=C[C@]4(C)[C@@]3(F)[C@@H](O)C[C@]2(C)[C@@]1(O)C(=O)COP(=O)(O)O` (some centres undefined) the figure was 45%.
